Experimental data as given in paper PMC5053603.
Results are given in words; binding and its absence hold for the method and conditions named. In cells and extracts the contact can be indirect. Some entries that bind do so weakly or less than the wild type. Values belong to the molecule of their own block, whether it stands above or below them.

The chains behind the UniProt entries cited, without tags or fusion partners.
UniProt P11413: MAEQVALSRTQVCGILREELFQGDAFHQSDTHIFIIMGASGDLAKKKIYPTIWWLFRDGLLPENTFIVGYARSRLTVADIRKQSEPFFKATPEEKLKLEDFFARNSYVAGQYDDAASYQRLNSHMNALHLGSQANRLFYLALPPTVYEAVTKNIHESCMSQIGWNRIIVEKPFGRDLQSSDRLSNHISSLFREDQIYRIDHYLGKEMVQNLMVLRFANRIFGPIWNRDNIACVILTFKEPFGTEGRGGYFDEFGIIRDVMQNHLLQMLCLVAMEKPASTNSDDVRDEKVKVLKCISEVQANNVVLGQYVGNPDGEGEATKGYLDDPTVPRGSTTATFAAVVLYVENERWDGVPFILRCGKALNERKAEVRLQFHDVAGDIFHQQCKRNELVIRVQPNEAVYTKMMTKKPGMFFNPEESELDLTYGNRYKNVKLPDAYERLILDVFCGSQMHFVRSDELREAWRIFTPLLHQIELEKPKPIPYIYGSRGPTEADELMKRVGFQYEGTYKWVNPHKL

What was measured:
[1] = molecular target: T1, SIRT2 (human (endogenous in U87-MG)) (UniProt Q8IXJ6); assay: co-IP; inverse co-immunoprecipitation of the endogenous proteins in U87 cell lysate (NP-40 buffer), antibody then Protein-A beads at 4°C, western blot; control and HSPB1-knockdown cells (Fig 4F)
T1 sequence: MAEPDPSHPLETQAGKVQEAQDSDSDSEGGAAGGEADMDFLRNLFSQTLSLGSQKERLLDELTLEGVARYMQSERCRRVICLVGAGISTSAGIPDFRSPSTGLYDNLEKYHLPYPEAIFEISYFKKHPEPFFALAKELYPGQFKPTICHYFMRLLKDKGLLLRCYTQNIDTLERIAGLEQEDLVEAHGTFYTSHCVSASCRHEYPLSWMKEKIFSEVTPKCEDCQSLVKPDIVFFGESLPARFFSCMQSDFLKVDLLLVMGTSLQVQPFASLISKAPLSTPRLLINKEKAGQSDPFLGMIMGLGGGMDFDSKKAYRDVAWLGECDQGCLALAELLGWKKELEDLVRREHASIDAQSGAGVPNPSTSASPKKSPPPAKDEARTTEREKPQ

[2] = molecular target: glucose 6-phosphate dehydrogenase (human (endogenous in U87-MG)) (UniProt P11413); assay: co-IP; endogenous proteins in U87 cell lysate (NP-40 buffer: 50 mM Tris-HCl pH 7.6, 150 mM NaCl, 0.5% NP-40), antibody then Protein-A beads at 4°C, western blot; control and HSPB1-knockdown cells (Fig 4E)

- binding [1]: binds
Molecule: glucose 6-phosphate dehydrogenase (from UniProt P11413 1-515) (enzyme)

- binding [2]: binds
B1: SIRT2 (enzyme, UniProt Q8IXJ6 1-389)
chain: T1 sequence
